Measurements as given in doi:10.1101/2021.09.06.459192.
No constants are given. Whether binding was seen depends on the method and setting. Binding seen in cells or lysates may run through a third protein. Here binding means that the protein was enriched with, or labelled near, the bait; the list need not be complete.

Protein sequences, listed by entry. Tags and fused reporters are not part of them. Lines headed by an entry give the natural chain unless they say otherwise; changes in a name come on top.
UniProt P42945: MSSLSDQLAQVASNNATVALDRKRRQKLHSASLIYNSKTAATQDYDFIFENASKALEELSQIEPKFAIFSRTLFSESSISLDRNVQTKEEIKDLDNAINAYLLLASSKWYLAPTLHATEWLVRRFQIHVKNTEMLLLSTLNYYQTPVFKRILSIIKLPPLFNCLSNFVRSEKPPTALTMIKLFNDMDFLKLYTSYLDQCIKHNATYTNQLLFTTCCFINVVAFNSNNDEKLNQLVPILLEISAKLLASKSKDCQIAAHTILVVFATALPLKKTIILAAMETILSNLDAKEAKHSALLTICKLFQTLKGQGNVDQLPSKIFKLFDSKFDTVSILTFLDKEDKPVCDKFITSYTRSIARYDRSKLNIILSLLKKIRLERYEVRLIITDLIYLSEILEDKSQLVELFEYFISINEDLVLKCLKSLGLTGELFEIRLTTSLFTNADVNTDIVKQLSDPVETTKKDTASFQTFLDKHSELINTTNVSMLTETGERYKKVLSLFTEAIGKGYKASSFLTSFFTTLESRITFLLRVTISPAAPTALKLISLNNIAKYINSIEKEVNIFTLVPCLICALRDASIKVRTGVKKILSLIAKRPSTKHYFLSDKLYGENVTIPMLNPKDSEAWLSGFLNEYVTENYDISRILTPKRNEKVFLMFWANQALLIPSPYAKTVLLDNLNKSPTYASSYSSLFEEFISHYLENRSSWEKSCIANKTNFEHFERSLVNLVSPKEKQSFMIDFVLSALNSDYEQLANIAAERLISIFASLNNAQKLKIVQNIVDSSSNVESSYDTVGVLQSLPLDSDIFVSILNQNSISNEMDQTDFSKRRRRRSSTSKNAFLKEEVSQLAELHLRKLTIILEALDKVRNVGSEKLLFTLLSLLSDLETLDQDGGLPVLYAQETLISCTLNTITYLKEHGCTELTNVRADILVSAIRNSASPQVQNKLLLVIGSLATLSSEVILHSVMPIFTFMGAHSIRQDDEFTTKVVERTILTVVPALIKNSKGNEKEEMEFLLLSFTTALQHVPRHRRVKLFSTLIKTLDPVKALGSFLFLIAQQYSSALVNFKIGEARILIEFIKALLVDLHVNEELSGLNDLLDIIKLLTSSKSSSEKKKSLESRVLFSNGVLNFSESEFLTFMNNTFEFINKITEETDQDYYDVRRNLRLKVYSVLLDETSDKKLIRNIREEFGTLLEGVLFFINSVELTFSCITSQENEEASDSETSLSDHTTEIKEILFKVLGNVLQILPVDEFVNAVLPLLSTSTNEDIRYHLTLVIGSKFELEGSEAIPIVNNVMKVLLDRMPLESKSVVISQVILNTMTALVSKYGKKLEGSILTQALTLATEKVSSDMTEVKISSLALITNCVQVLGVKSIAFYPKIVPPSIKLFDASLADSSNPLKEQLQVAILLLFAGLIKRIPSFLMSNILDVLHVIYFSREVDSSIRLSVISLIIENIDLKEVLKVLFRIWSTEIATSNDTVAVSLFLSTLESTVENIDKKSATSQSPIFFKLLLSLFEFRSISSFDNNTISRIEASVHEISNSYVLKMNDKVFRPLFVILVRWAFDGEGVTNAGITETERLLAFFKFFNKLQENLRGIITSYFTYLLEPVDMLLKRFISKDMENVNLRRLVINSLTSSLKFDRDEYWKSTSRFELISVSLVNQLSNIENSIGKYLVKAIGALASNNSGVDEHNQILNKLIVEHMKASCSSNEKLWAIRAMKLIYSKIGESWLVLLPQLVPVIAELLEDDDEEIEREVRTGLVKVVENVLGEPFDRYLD
UniProt P33442: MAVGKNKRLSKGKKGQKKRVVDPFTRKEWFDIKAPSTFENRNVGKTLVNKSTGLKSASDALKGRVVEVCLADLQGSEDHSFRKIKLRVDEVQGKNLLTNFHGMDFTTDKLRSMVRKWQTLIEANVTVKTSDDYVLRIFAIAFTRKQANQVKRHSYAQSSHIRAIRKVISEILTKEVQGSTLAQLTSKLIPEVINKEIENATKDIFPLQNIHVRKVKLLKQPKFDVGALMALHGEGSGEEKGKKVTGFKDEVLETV
UniProt P20448: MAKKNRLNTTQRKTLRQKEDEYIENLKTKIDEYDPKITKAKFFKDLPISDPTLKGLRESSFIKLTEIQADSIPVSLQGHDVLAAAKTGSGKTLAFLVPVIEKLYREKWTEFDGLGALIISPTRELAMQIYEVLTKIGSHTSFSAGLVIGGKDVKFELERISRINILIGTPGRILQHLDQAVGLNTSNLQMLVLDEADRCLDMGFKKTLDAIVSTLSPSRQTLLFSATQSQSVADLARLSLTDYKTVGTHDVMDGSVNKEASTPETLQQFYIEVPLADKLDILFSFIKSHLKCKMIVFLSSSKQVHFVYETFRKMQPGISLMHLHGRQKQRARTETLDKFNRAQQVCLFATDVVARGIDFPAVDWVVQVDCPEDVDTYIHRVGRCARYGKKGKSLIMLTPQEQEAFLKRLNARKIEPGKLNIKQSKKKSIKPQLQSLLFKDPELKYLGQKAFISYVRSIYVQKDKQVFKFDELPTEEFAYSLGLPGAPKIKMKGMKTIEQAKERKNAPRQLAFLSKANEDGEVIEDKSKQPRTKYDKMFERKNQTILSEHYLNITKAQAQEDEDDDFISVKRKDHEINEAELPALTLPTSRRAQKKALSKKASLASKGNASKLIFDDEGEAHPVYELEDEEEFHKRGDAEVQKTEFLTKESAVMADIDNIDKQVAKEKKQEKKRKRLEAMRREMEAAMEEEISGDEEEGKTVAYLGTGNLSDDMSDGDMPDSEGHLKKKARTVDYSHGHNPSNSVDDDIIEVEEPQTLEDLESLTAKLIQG

Target: Utp10-TAP (S. cerevisiae) (UniProt P42945)
Assay: affinity purification with mass spectrometry

binding | Substance
binds | Rps1 (from UniProt P33442)
binds | Dbp4 (from UniProt P20448 1-770)
